From ChEMBL document CHEMBL3988442, “University of Dundee, Small-Polar-MMV Screening Library” (2021).

By UniProt entry, the sequences of proteins in these tests, tags left out. Residues count along the entry.
UniProt Q4DA54, 1-478: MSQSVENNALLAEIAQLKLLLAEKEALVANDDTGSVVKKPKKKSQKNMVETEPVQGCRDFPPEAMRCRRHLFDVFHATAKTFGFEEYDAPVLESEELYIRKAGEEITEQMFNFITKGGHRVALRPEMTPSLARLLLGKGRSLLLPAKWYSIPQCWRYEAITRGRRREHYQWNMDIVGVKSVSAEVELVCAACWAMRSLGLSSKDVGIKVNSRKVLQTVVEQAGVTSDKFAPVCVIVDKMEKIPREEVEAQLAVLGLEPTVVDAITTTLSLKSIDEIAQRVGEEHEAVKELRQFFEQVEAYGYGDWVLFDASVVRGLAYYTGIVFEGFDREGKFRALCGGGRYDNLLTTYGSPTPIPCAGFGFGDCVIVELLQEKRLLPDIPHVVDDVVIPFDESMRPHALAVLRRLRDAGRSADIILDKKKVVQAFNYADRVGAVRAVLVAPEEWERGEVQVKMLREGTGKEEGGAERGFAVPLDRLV
UniProt P9WNZ1, whole entry: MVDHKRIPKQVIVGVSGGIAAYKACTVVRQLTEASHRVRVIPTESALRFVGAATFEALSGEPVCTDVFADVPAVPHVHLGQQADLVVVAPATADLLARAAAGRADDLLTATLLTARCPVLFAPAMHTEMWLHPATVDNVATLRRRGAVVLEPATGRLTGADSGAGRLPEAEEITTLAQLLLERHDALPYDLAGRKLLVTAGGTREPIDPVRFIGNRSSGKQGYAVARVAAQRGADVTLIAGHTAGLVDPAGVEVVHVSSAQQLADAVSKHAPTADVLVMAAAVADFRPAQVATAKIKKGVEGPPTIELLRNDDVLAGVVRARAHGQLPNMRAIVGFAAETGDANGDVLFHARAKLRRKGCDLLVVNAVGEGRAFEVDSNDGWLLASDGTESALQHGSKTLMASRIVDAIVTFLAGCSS

Values are the deposited “Percent Effect”, in %.
The controls that fix the scale are not given in the record; negative values are as filed.
This is an unselected part of the compounds tested.

TcHisRS: 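Histidine-tRNA ligase, Trypanosoma cruzi CL Brener (UniProt Q4DA54). Enzyme assay of histidyl-tRNA synthetase; the read-out is not stated. Concentration: 30 µM. Direction is inferred from retests: higher values go with stronger inhibition. About 69,000 compounds were tested under these conditions; 0.045% (about 31) showed 50% or more at least once.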
CoaBC: 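Coenzyme A biosynthesis protein CoaBC, Mycobacterium tuberculosis (UniProt P9WNZ1). Enzyme assay of CoaBC with a phosphate dye (Biomol Green) read at 650 nm. Compounds at 30 µM. Direction is inferred from only a few compounds that gave an IC50; most scored high, so higher reads as stronger inhibition. Most strong results did not repeat in a second test. Size under these conditions: about 67,000 compounds, about 40 of them at 50% or above in at least one test.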

For CCn1cc(CN2C[C@@H]3CCCN3C[C@H]2CCSC)c(C)n1 the result was TcHisRS: 6.742%; CoaBC: 2.602%.
For O=C(NCc1ccc(Cl)cc1)C1CCCN(c2ccc3nncn3n2)C1 (centres unmarked) the result was TcHisRS: 0%; CoaBC: 5.364%.
For CC(=O)NCCNCc1cn(CCN2CCSCC2)nc1C the result was TcHisRS: 1.288%; CoaBC: 2.033%.
For Cn1ncc(C(=O)O)c1C(=O)Nc1nc2ccc(Br)cc2s1 the result was TcHisRS: 1.98%; CoaBC: 2.184%.
For Nc1no[n+]([O-])c1C(=O)NCc1cccnc1 the result was TcHisRS: 12.87%; CoaBC: -3.855%.
For CC(C)Cc1noc(CNc2ccccc2CC(=O)N(C)C)n1 the result was TcHisRS: 7.216%; CoaBC: 5.055%.
For COc1cc(C2CC(=O)Oc3cc(C)[nH]c(=O)c32)ccc1OC(F)F (centres unmarked) the result was TcHisRS: 2.732%; CoaBC: -2.826%.
For NC(=O)CCn1ccc(NC(=O)C2(c3ccc(F)cc3)CCC2)n1 the result was TcHisRS: 1.031%; CoaBC: 0.7335%.
For CCN(CC)C(=O)CN1CCC2(C=Cc3cc(Cl)c(C)cc3O2)CC1 the result was TcHisRS: 8.857%; CoaBC: -1.826%.
For CN1CCCCC1c1ncc2c(n1)CCN(Cc1ccccc1Cl)C2 (centres unmarked) the result was TcHisRS: 27.87%; CoaBC: 14.25%.
For CN(Cc1csc2ccccc12)C(=O)NC1CCS(=O)(=O)C1 (centres unmarked) the result was TcHisRS: 7.879%; CoaBC: 3.406%.
For O=C(NCCNc1ccc(Br)cn1)c1ccc(O)cc1 the result was TcHisRS: 9.211%.
For CC(C)NC(=O)c1ccc2nnc(C3CCN(C(=O)NC(C)C)C3)n2c1 (centres unmarked) the result was TcHisRS: 2.299%; CoaBC: -4.713%.
For COc1ncc(C2(O)CCN(Cc3cc(F)cc(F)c3)CC2)c(OC)n1 the result was TcHisRS: 7.692%; CoaBC: 0%.
For COc1ccc(-n2cnnc2SCC(=O)N(C)C(C)C)cn1 the result was TcHisRS: 1.667%; CoaBC: 9.091%.
For c1cc(COC[C@H]2CCC[C@]23CNCCO3)ccn1 the result was TcHisRS: 10.58%; CoaBC: 0.2469%.
For c1cnn(CC2CCN(c3nc(C4CC4)nc4c3CCNCC4)CC2)c1 the result was TcHisRS: 6.818%; CoaBC: -50.75%.
For CC(O)CCN(C)C(=O)Nc1ccc(Br)cc1 (centres unmarked) the result was TcHisRS: 9.375%; CoaBC: 1.381%.
For CC(O)CN1CCN(C(=O)c2cccc(CC#N)c2)CC1 (centres unmarked) the result was TcHisRS: -2.29%; CoaBC: -2.651%.
For CCNC(=O)CCC(=O)N1CCC(Oc2cc(C)ccc2C)CC1 the result was TcHisRS: 11%; CoaBC: -8.959%.
For O=C(CCc1nccs1)N1CCN(c2ncccn2)CC1 the result was TcHisRS: 1.132%; CoaBC: -6.154%.
For CN(CCc1cn[nH]c1)Cc1nc(Cc2cccc(C(F)(F)F)c2)no1 the result was TcHisRS: 5.051%; CoaBC: 2.046%.
For OCCN(Cc1ccncc1)CC1(c2ccc(Cl)cc2)CC1 the result was TcHisRS: 0.7752%; CoaBC: 2.331%.
For COCC[C@]1(O)CCN(Cc2ccccn2)C[C@H]1C the result was TcHisRS: 8.036%; CoaBC: -4.654%.
For Cc1sc(-c2ccco2)nc1C(=O)NCC1CCOC1 (centres unmarked) the result was TcHisRS: 5.946%; CoaBC: 10.45%.
For CC(C)N(C)Cc1cnc2n1CCN(C(=O)Cc1ccsc1)C2 the result was TcHisRS: 12.06%; CoaBC: 3.716%.
For CC(C)c1nnc2n1CCN(C(=O)c1cccc(S(C)(=O)=O)c1)C2 the result was TcHisRS: 2.882%; CoaBC: -0.2273%.